The results in this text go back to PubChem BioAssay AID2685 (National Center for Advancing Translational Sciences (NCATS), 2010).

SMILES strings stand for the structures. The list shows a part of the results. Further columns of the screen follow, without active or inactive calls. Most of these compounds were active or inconclusive in the main read-out, so they are no random draw. The note in brackets gives the kind of curve behind each potency; many fits are weak.

This experiment is described as follows: qHTS Assay for Lipid Storage Modulators in Drosophila S3 Cells.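 As to cell number change: cells counted by Cell Tracker Red CMTPX staining in the red channel.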 The conditions noted are these: BODIPY lipid droplet fluorescence, 18-24 h; for cell number change: measured here: cell count max response, cells fed with added oleic acid. The essentials: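 Drosophila S3 cells loaded with oleic acid (400 uM, as added) and compounds at several concentrations; lipid droplets imaged by 488-nm laser-scanning cytometry, 500–530 nm intensity and object ratio to cell channel. Percent activity normalized to 20 uM Triacsin C.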

[1] abbreviates: measured here: cell number channel AC50, cells fed with added oleic acid.
Where [2] appears, read: measured here: lipid fluorescence (Fed channel) AC50, cells fed with added oleic acid.

The AC50 is the midpoint of the concentration-response curve, whichever way the signal moves. With `COc1ccc(S(=O)(=O)N2CCCCCC2)cc1NC(=O)CN1C(=O)NC(C)(c2ccccc2)C1=O` (stereo not drawn), the AC50 was 0.731 µM [falling, partial curve, poor fit] under setting [1] and 16.4 µM [falling, partial curve, poor fit] under setting [2].
As for `Cc1ccc(O)c(Nc2ncnc3ccc([N+](=O)[O-])cc23)c1`, the cell number change was -47.3%. Also, the AC50 under setting [1] was 9.2 µM [falling, partial curve, poor fit].
Turning to `CC(OC(=O)Cn1[nH]c(=O)c2ccccc2c1=O)C(=O)Nc1ccc(F)cc1` (stereo not drawn), the AC50 under setting [1] is 7.31 µM [rising, single point].
With `CN(C)CCNc1nc(-c2ccco2)c2c(c1C#N)CC(C)(C)OC2`, the cell number change was -50.8%. Further, the AC50 under setting [1] was 5.17 µM [falling, full curve]. Further, under setting [2], the AC50 is 29.1 µM [falling, single point].
Turning to `O=C(NCCCN1CCOCC1)c1sc2cc([N+](=O)[O-])ccc2c1Cl`, the cell number change is -16.4%.
In the case of `Cn1nc(-c2ccccc2)c(N2CCCCC2)cc1=O`, the cell number change is -18.4%.
Take `COc1ccc(OC)c(/C=N/NC(=O)c2ccc(Cn3cc([N+](=O)[O-])cn3)o2)c1`: the cell number change is -42.5%. Moreover, the AC50 under setting [1] was 32.6 µM [falling, single point]. Under setting [2], the AC50 was 29.1 µM [falling, single point].
For `COc1cccc(CNC(=O)c2cccnc2Sc2ccc(Cl)cc2)c1`, the cell number change was 12.6%. Besides, the AC50 under setting [1] was 6.51 µM [rising, single point]. Further, under setting [2], the AC50 is 14.6 µM [rising, partial curve].
With `COCC(C)NC(=O)c1ccc2nc(-c3ccccc3)c(-c3ccccc3)nc2c1` (stereo not drawn), the cell number change was -24.3%.
For `CC(=O)N1CCN(CC(C)(C)NS(=O)(=O)c2ccc(C)cc2)CC1`, the cell number change was -4.62%. The AC50 under setting [2] is 0.146 µM [rising, full curve, poor fit].
In the case of `O=C(Nc1cccc(Cl)c1)C1C2C=CC3(O2)C1C(=O)N(CCN1CCCCC1)C3C(=O)NC1CCCCC1` (stereo not drawn), the cell number change was determined as 8.06%. For the same compound, the AC50 under setting [2] is 25.9 µM [falling, partial curve, poor fit].
As for `Cc1ccc(S(=O)(=O)/N=C(/NC(=S)Nc2cccc(C)c2)c2ccccc2)cc1`, the cell number change is 91.1%. The AC50 under setting [1] is 29.1 µM [rising, single point].
For `COc1ccc(CN2CCC(Oc3ccc(C(=O)N4CCCCC4)cc3)CC2)cc1C`, the cell number change was -1.98%. Also, the AC50 under setting [2] is 29.1 µM [falling, single point].
`Cc1oncc1C(=O)N1CCCC(CO)(Cc2ccc(F)cc2F)C1` (stereo not drawn): the cell number change was -9.48%.
For the compound `Cc1ccc(SCc2nc(-c3ccncc3)no2)cc1`, the cell number change is 5.69%. Under setting [2], the AC50 is 9.2 µM [rising, partial curve, poor fit].
On to `CN(C(=O)Cn1nnc(-c2ccccc2)n1)C1CCS(=O)(=O)C1` (stereo not drawn), for which the cell number change was -43.7%. Also, the AC50 under setting [1] is 0.231 µM [falling, full curve]. The AC50 under setting [2] is 0.82 µM [falling, full curve].
With `COc1ccccc1-n1c(SCC(N)=O)nc2sc3c(c2c1=O)CCC3`, the cell number change was 10.5%. Also, the AC50 under setting [1] is 1.16 µM [rising, partial curve, poor fit].
As for `Cc1[nH]c(=O)[nH]c(=O)c1/C=N/NC(=O)[C@@H](N)CC(C)C`, the cell number change amounted to 5.68%. Also, the AC50 under setting [2] was 0.116 µM [falling, full curve, poor fit].
As for `CN(C(=O)CSc1nnc(-c2cccs2)o1)C1CCS(=O)(=O)C1` (stereo not drawn), the cell number change was -25.7%. In addition, under setting [1], the half-maximal activity concentration (AC50) was 3.26 µM [falling, full curve, poor fit].
As to `COc1cc(C(C)=O)ccc1OCC(O)CN1CCN(c2ccc(C)cc2C)CC1` (stereo not drawn), the cell number change was found to be 39.8%. The AC50 under setting [1] was 18.4 µM [rising, single point].
In the case of `CCc1nnc(NS(=O)(=O)c2ccc(N3C(=O)c4ccc(C(=O)O)cc4C3=O)cc2)s1`, the cell number change is -42.5%. Under setting [1], the AC50 is 1.16 µM [falling, full curve]. Moreover, under setting [2], the concentration at half-maximal activity (AC50) is 0.461 µM [falling, full curve].
As for `CCOc1ncccc1C(=O)NCCCSc1ccccc1`, the cell number change was found to be 6.38%. The AC50 under setting [2] was 32.6 µM [rising, single point].
Regarding `CCc1ccc2[nH]c(=O)c(CN(CCCO)C(=O)NCc3ccccc3)cc2c1`, the cell number change is -7.56%.
On to `C=CCN=C(NC#N)SCC(=O)c1cccc(OC)c1`, for which the cell number change was found to be 48.8%. Under setting [1], the AC50 was 29.1 µM [rising, single point]. Besides, the AC50 under setting [2] was 9.2 µM [rising, partial curve].
Regarding `CC(=O)c1cccc(NC(=O)CC(C)n2ccnc2)c1` (stereo not drawn), under setting [1], the AC50 was 0.326 µM [rising, full curve, poor fit].
In the case of `Cc1c(NC(=O)COC(=O)/C=C/c2cccc(Cl)c2)c(=O)n(-c2ccccc2)n1C`, the cell number change is 0.547%.
For `CN(C)/C=C/C(=O)c1nnn(C2CCCCC2)c1NC1CCCCC1`, the cell number change is -71.1%. Besides, the AC50 under setting [1] is 20.6 µM [falling, single point].
Take `CCOC(=O)N1CCN(c2c(NCc3ccc(N(C)C)cc3)c(=O)c2=O)CC1`: the AC50 was 0.164 µM [rising, full curve, poor fit] under setting [1] and 0.206 µM [rising, full curve, poor fit] under setting [2].
In the case of `Cc1ccccc1NC(=O)C(NS(=O)(=O)c1ccc2c(c1)c(=O)n(C)c(=O)n2C)c1ccccc1` (stereo not drawn), the cell number change was -15.7%. In addition, under setting [2], the AC50 is 0.0058 µM [rising, full curve, poor fit].
`CC(C)(Oc1ccc(Cl)cc1)C(=O)N1CCN(C(=O)c2ccco2)CC1`: the cell number change came out at 16.5%.
On to `CN(C)CCCNc1c2c(nc3ccccc13)CCC2`, for which the cell number change is 2.11%. For the same compound, the AC50 under setting [2] was 0.58 µM [falling, single point].
Turning to `CC(C)CCOc1cccc(OCC(=O)N(C)C2CCS(=O)(=O)C2)c1` (stereo not drawn), the cell number change is 17.4%. The AC50 under setting [2] is 10.3 µM [rising, partial curve].
Turning to `O=C(O)c1cccc(-n2cccc2/C=C2/NC(=O)N(c3ccc(Cl)cc3)C2=O)c1`, the cell number change was 15.1%. Besides, the AC50 under setting [1] is 2.06 µM [rising, partial curve, poor fit].
On to `COc1ccc(/C=C2/SC(=O)N(CC(=O)NCCC(C)C)C2=O)cc1OC`, for which the cell number change was -39.6%. Further, the AC50 under setting [1] is 20.6 µM [falling, single point].
With `CCN(C(=O)COC(=O)/C=C/c1c(C)nn(Cc2ccc(C)cc2)c1C)C1CCS(=O)(=O)C1` (stereo not drawn), the AC50 under setting [2] is 6.51 µM [rising, partial curve, poor fit].
As for `CCn1c(-c2nn(-c3ccccc3)ccc2=O)n[nH]c1=S`, the cell number change was -44.7%. The AC50 under setting [1] is 29.1 µM [falling, single point]. In addition, the AC50 under setting [2] was 25.9 µM [falling, partial curve].
For the compound `O=C(Nc1c2n(c(=S)n(-c3ccccc3)c1=O)CCCCC2)c1ccccc1`, the AC50 under setting [2] was 0.103 µM [rising, partial curve, poor fit].
In the case of `CC1(C)Oc2ccc(C(=O)NC3CCCC3)cc2N(CC(=O)NC2CCCC2)C1=O`, under setting [2], the concentration at half-maximal activity (AC50) is 0.461 µM [rising, single point].
As for `O=C(CSc1nnc2ccc(-c3cccnc3)nn12)Nc1cccc(F)c1`, the cell number change is 33.6%. Moreover, the AC50 under setting [1] was 29.1 µM [rising, single point].
Regarding `O=C(NCc1ccc2c(c1)OCO2)c1cccc(S(=O)(=O)N2CCCC2)c1`, the cell number change was found to be 12.4%. In addition, under setting [2], the AC50 was 29.1 µM [rising, single point].
Consider `O=S(=O)(NCc1ccccn1)c1ccc(F)cc1`, for which the cell number change was -40.2%. The AC50 under setting [1] was 4.11 µM [falling, full curve, poor fit]. Under setting [2], the AC50 was 5.8 µM [falling, partial curve].
For `O=c1c(Cc2ccccc2)c(O)ccn1Cc1ccc2c(c1)OCO2`, the cell number change was -1.23%.
Same read-out and setting: under `O=C(NNC(=O)c1cc2ccccc2cc1O)Nc1ccc(Br)cc1` stands -20.3%.
Regarding `COc1ccc(NC(=O)CN(C)C(=O)CNC(=O)c2cccs2)cc1`, the cell number change was -8.84%. Also, the AC50 under setting [2] is 20.6 µM [falling, single point].
For the compound `COc1ccccc1CN(C)C(=O)c1cc(-c2cccs2)nc2ccccc12`, under setting [2], the AC50 was 5.62 µM [rising, single point].
For the compound `CC(C)CC(NS(=O)(=O)c1ccccc1S(=O)(=O)NC(CC(C)C)C(=O)O)C(=O)O` (stereo not drawn), the cell number change was 30.1%. The AC50 under setting [1] is 0.0206 µM [rising, full curve, poor fit]. In addition, under setting [2], the AC50 is 18.4 µM [falling, single point].
As to `COc1ccc(C2CC(c3ccccc3)=NN2c2ccc(N)cc2)cc1` (stereo not drawn), the cell number change is 20.9%. Also, the AC50 under setting [2] is 4.11 µM [rising, partial curve].
Take `COc1ccc(N(CC(=O)Nc2cccc3ccccc23)S(C)(=O)=O)c(OC)c1`: the cell number change was 16.8%. In addition, under setting [2], the AC50 is 29.1 µM [rising, single point].
With `CCN(CC)S(=O)(=O)c1ccc(-c2nnc(SCC(=O)c3ccc(OC)cc3)o2)cc1`, the cell number change worked out at 17.8%. Moreover, under setting [1], the AC50 is 3.66 µM [rising, single point].
Turning to `CCCN1C/C(=C/c2cccc([N+](=O)[O-])c2)C(=O)/C(=C/c2cccc([N+](=O)[O-])c2)C1`, the cell number change is -33.7%. Moreover, the half-maximal activity concentration (AC50) under setting [1] was 0.58 µM [falling, partial curve]. Besides, the AC50 under setting [2] was 13 µM [falling, partial curve].
Turning to `COc1cccc(N2C(=O)CC(N3CCC(c4nc5ccccc5[nH]4)CC3)C2=O)c1` (stereo not drawn), the cell number change was -6%. For the same compound, the AC50 under setting [2] was 0.0517 µM [falling, full curve, poor fit].
Take `Cc1ccc(COn2c(-c3ccc(Cl)cc3Cl)nc3ncccc32)cc1`: the cell number change is -5.31%.
Take `COc1ccc(NC(=O)CN(C)C(=O)c2ccccc2CCc2ccccc2)cc1`: the cell number change worked out at 59.4%. In addition, the AC50 under setting [1] is 16.4 µM [rising, partial curve].
`CC1CCCN(C(=O)COC(=O)CNC(=O)c2ccc(Br)cc2)C1` (stereo not drawn): the cell number change is -24.9%. For the same compound, under setting [2], the AC50 was 0.092 µM [falling, full curve, poor fit].
`O=C(Nc1ccc2nc(-c3ccccc3)oc2c1)c1ccco1`: the cell number change was determined as 6.36%. Moreover, the AC50 under setting [2] is 2.59 µM [rising, partial curve].
Consider `Cc1ccc2nc(COc3ccc(Cl)cc3)cc(=O)n2c1`, for which the cell number change came out at 15.2%.
Turning to `COCCSc1nnc(NC(=O)COC)s1`, the AC50 under setting [2] was 4.61 µM [falling, partial curve].
Turning to `COc1ccc(C2=NN(C(=O)c3cccc([N+](=O)[O-])c3)C(c3cccc([N+](=O)[O-])c3)C2)cc1` (stereo not drawn), the AC50 under setting [1] is 1.46 µM [rising, partial curve] and the AC50 under setting [2] is 0.58 µM [rising, full curve, poor fit].
